Source: PubChem BioAssay AID328 (DTP/NCI, 2004)
The list shows only some results of the screen, not a fair sample: it gathers tests that were run many times, whatever their T/C, doses with no T/C, and many T/C values between a quarter and a half above the control. Other doses and runs of a compound stand elsewhere. T/C is the treated group as % of the vehicle group. Some entries give survivors of the animals treated and no T/C: the source holds a T/C of zero for them, seemingly a mark for toxic or unscored doses. Some doses without a T/C left all or most animals alive at the check, yet need not have been tolerated: survival well below the control is almost never listed, so the zero probably covers shortened survival too. Counts of survivors are from the toxicity check (mostly the fifth day) where no day follows; animals may have died later. Schedules are NCI's codes, taken here to give the interval after Q, in days (D) or hours (H), and the number of doses after X. Where survival is the endpoint, the PubChem record calls one and a half times the control and up active, and a quarter to a half above the control has no call in these data; cut-offs in other NCI protocols can differ. Some T/C values are followed by the survivors on the day toxicity was checked, most often the fifth; where none is given, no animal had died by that day.

Test system: BDF1 mice, P388 leukemia ip, median survival T/C
Assay: NCI In Vivo Anticancer Drug Screen. Data for tumor model P388 Leukemia (intraperitoneal) in B6D2F1 (BDF1) mice
Settings: T/C endpoint: median survival time, higher T/C = longer survival
Procedure, shortened: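 In tumour-bearing mice, survival after compound treatment is set against the vehicle group and given as a quotient.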

[1] = dose: 400.0 mg/kg/injection, schedule: Q01DX009 (ip), vehicle: Klucel (hydroxypropylcellulose) (HPC)
[2] = dose: 400.0 mg/kg/injection, schedule: Q04DX003 (ip), vehicle: Klucel (hydroxypropylcellulose) (HPC)

For `COc1ccc(C2C=C(c3ccc4c(c3)OCO4)Oc3c2c(=O)oc2ccccc32)cc1OC` (stereo not given), the survivor count (dose: 400.0 mg/kg/injection, schedule: Q01DX009 (ip), vehicle: water) was 5 of 6.
With `CCCCCCCCCCCC(=O)N(C)C` the survivor count [1] was 6 of 6.
For `CCOC(=O)c1c(C)c2c(n1C)CCc1cn[nH]c1-2`, the T/C [1] was 130 % of control [4 of 6 alive].
With `COc1cccc2c1C(=O)c1c(O)c3c(c(O)c1C2=O)C[C@@](O)(C(C)=O)C[C@@H]3OC1CC(NC(=O)c2ccncc2)C(O)C(C)O1` (stereo not given in full) the T/C (dose: 0.78 mg/kg/injection, schedule: Q01DX009 (ip), vehicle: water) was 129 % of control, the T/C (dose: 1.56 mg/kg/injection, schedule: Q01DX009 (ip), vehicle: water) was 140 % of control and the T/C (dose: 25.0 mg/kg/injection, schedule: Q01DX009 (ip), vehicle: water) was 140 % of control.
`Cc1cc(C)n(CO)n1` was tested, and the T/C (dose: 200.0 mg/kg/injection, schedule: Q01DX009 (ip), vehicle: Klucel (hydroxypropylcellulose) (HPC)) was 140 % of control, the survivor count [1] was 6 of 6 and the survivor count [2] was 4 of 6.
For `COc1ccc(/C=C/c2ccnc3ccccc23)cc1`, the survivor count (dose: 50.0 mg/kg/injection, schedule: Q01DX009 (ip), vehicle: saline with Tween-80) was 6 of 6.
In the case of `CCOCCN1CCN(CCCN2c3ccccc3Sc3ccc(C(F)(F)F)cc32)CC1`, the T/C (dose: 12.5 mg/kg/injection, schedule: Q04DX003 (ip), vehicle: saline) is reported as 138 % of control [5 of 6 alive], the survivor count (dose: 25.0 mg/kg/injection, schedule: Q04DX003 (ip), vehicle: saline) is reported as 5 of 6 and the survivor count (dose: 50.0 mg/kg/injection, schedule: Q04DX003 (ip), vehicle: saline) is reported as 4 of 6. For the same compound, the survivor count (dose: 50.0 mg/kg/injection, schedule: Q04DX003 (ip), vehicle: water) was 4 of 7, the survivor count (dose: 100.0 mg/kg/injection, schedule: Q04DX003 (ip), vehicle: water) was 0 of 7 and the survivor count (dose: 200.0 mg/kg/injection, schedule: Q04DX003 (ip), vehicle: water) was 0 of 7. For the same compound, the survivor count (dose: 400.0 mg/kg/injection, schedule: Q04DX003 (ip), vehicle: water) was 0 of 7.
`C[n+]1c(-c2ccc(Cl)cc2Cl)c2cc(N)ccc2c2ccccc21` was tested, and the survivor count (dose: 0.39 mg/kg/injection, schedule: Q01DX009 (ip), vehicle: water) was 6 of 6.
For `N#CSCc1ccc(Cl)c(CSC#N)c1`, the T/C (dose: 12.5 mg/kg/injection, schedule: Q04DX003 (ip), vehicle: Klucel (hydroxypropylcellulose) (HPC)) was 130 % of control, the T/C (dose: 18.0 mg/kg/injection, schedule: Q01DX009 (ip), vehicle: Klucel (hydroxypropylcellulose) (HPC)) was 130 % of control and the T/C (dose: 25.0 mg/kg/injection, schedule: Q01DX009 (ip), vehicle: Klucel (hydroxypropylcellulose) (HPC)) was 130 % of control. For the same compound, the T/C (dose: 25.0 mg/kg/injection, schedule: Q04DX003 (ip), vehicle: Klucel (hydroxypropylcellulose) (HPC)) was 135 % of control, the survivor count (dose: 50.0 mg/kg/injection, schedule: Q01DX009 (ip), vehicle: Klucel (hydroxypropylcellulose) (HPC)) was 2 of 6 and the T/C (dose: 50.0 mg/kg/injection, schedule: Q04DX003 (ip), vehicle: Klucel (hydroxypropylcellulose) (HPC)) was 135 % of control [4 of 6 alive]. For the same compound, the survivor count (dose: 100.0 mg/kg/injection, schedule: Q04DX003 (ip), vehicle: Klucel (hydroxypropylcellulose) (HPC)) was 1 of 6, the survivor count (dose: 200.0 mg/kg/injection, schedule: Q04DX003 (ip), vehicle: Klucel (hydroxypropylcellulose) (HPC)) was 0 of 6 and the survivor count [2] was 1 of 6.
With `CC1CCC2N(C1)CC1C3(O)CC45OC6(O)C(O)CCC4(C)C6CCC5C3(O)CC(O)C1(O)C2(C)O` (stereo not given) the survivor count (dose: 15.0 mg/kg/injection, schedule: Q01DX010 (ip), vehicle: carboxymethylcellulose (CMC)) was 0 of 6, the survivor count (dose: 30.0 mg/kg/injection, schedule: Q01DX010 (ip), vehicle: carboxymethylcellulose (CMC)) was 0 of 6 and the survivor count (dose: 60.0 mg/kg/injection, schedule: Q01DX010 (ip), vehicle: carboxymethylcellulose (CMC)) was 0 of 6.
In the case of `C[C@]12CC[C@H](O)C[C@@]1(O)CC[C@@H]1[C@@H]2CC[C@]2(C)[C@@H](c3ccc(=O)oc3)CC[C@]12O`, the survivor count (dose: 50.0 mg/kg/injection, schedule: Q01DX010 (ip), vehicle: carboxymethylcellulose (CMC)) is reported as 5 of 6.
In the case of `COc1ccc(C[C@H](N)C(=O)NC2C(CO)OC(n3cnc4c(N(C)C)ncnc43)C2O)cc1` (stereo not given in full), the T/C (dose: 66.0 mg/kg/injection, schedule: Q01DX009 (ip), vehicle: saline) is reported as 140 % of control, the survivor count (dose: 150.0 mg/kg/injection, schedule: Q01DX009 (ip), vehicle: saline) is reported as 6 of 6 and the T/C (dose: 200.0 mg/kg/injection, schedule: Q04DX003 (ip), vehicle: saline) is reported as 129 % of control. For the same compound, the survivor count (dose: 400.0 mg/kg/injection, schedule: Q04DX003 (ip), vehicle: saline) was 4 of 8.
